Experimental data published in paper PMC6718149, “Structure of GTP cyclohydrolase I from Listeria monocytogenes, a potential anti-infective drug target” (Acta Crystallographica. Section F, Structural Biology …, 2019).
These are yes or no findings as the source states them, for the method shown. Some results given as binding are weak or reduced against the parent protein; the word gives no strength.

Molecular target: GTP cyclohydrolase I from Listeria monocytogenes (L. monocytogenes)
Assay: AUC; equilibrium sedimentation and boundary sedimentation (9.6 S); conditions not shown; both purified

binding: binds
B1: GTP cyclohydrolase I from Listeria monocytogenes (enzyme, L. monocytogenes)
chain: EQIDKQKIADAVKVILEAVGENPDREGLIDTPMRVARMYEEVFAGLKKDPSVHFDTIFEEQHEELVLVKDIRFSSMCEHHLVPFFGVAHVAYLPQNGRVAGLSKLARVVDDVSRRPQLQERITTTVAEIMMEKLKPLGVMVIMEAEHMCMTIRGVNKPGTKTITSAVRGAFKNDDKLRSEVLALIKHN
modifications: Cys78 and Cys150 oxidized to the disulfide level (in the crystal; zinc lost)
notes: GTP cyclohydrolase I (folE), L. monocytogenes ATCC BAA-679; the natural stretch begins at Glu (first cloned triplet GAG) and runs to the stop codon; the printed Cys78 and Cys150 fit numbering with this Glu as residue 2; D5-symmetric homodecamer; also called LmGTPCHI; His6-EK-LmGTP-CHI; source: E. coli XL1-Blue (plasmid pNCO-His6-EK-LmGTP-CHI), purified (nickel-NTA agarose, Superdex 200); not …
